Consider one compound from patent US20240075027A1, “REPOSITIONING THE ANTI-LEPROSY DRUG CLOFAZIMINE AGAINST DRUG-RESISTANT MYELOMA AND PUTATIVE STEM-CELL SUBCLONES” (Auburn University, priority 2022, published 2024).

SMILES strings stand for the structures.

This data set concerns HMCLs. The data set is described as follows: Gene expression profiling (RNA-seq), untreated vs treated. Type of data set: cell-based, human. The conditions noted are these: for number of differentially regulated genes: |fold-change|>2 (p<0.05).

In the case of `CC(C)/N=c1\cc2n(-c3ccc(Cl)cc3)c3ccccc3nc-2cc1Nc1ccc(Cl)cc1` [CLF, clofazimine], for the setting “5 μM CLF, 24 hours, p<0.05, |fold-change|>1”, the “number of differentially expressed genes vs CON” value was 172 genes. In addition, the “number of differentially regulated genes” value runs as follows: (FLAM76) 426 genes; (JIM3) 128 genes; (LP1) 10 genes; (RPMI8226) 714 genes; (U266) 33 genes.
